Data as given in patent US20140377282A1 (APEXIGEN, published 2014).
No constants are given. Whether binding was seen depends on the method and setting. Some binding calls cover weakened binding; strength is not graded here.

Amino acid sequences for entries named in this document (tags omitted). Residues count along the entry.
UniProt P35968, residues 20-764: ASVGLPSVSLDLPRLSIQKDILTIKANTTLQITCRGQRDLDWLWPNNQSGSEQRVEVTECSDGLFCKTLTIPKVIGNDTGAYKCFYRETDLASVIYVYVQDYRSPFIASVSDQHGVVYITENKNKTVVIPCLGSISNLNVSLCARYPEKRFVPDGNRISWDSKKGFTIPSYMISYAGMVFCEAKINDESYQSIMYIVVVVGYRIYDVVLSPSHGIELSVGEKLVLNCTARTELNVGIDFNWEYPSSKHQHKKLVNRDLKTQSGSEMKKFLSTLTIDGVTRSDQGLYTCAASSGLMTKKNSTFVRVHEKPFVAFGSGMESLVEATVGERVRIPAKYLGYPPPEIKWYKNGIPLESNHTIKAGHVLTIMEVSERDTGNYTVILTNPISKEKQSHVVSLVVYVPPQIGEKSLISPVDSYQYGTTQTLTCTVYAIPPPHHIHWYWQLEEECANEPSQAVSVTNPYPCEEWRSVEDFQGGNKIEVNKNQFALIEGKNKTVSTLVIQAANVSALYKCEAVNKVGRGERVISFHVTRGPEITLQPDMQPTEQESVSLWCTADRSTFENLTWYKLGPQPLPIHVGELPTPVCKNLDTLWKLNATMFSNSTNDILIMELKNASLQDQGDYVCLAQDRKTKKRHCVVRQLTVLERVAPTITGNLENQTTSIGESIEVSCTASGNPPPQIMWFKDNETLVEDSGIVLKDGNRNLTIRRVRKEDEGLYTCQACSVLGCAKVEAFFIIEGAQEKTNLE
UniProt P23510, residues 51-183: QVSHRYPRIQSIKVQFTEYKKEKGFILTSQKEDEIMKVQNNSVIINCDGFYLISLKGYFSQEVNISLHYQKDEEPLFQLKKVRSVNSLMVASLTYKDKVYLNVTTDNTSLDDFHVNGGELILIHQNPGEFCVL

B1: rabbit anti-KDR antibody clone 92 (antibody, V domains shown)
VH: QSVEESGGRLVTPGTPLTLTCTVSGFSLSSNAMSWVRQAPGEGLEWIGTISSSGSTYYATWVKGRFTISKTSTTVDLKMTSLTAADTATYFCARGDDDVSDYFYYFPIWGPGTLVTVSS
VL: AVVLTQTASPVSGAVGGTVTIKCQASQNIYNNLAWYRQKPGQPPKLLIYAASKLASGVPSRFSGSRSGTQFTLSISDLECADAATYYCQSYYFDSSSTDAAFGGGTEVVVK
notes: rabbit monoclonal antibody, recombinantly expressed and purified for characterization
B2: rabbit anti-KDR antibody clone 24 (antibody, V domains shown)
VH: B1 VH
VL: B1 VL
notes: as for B1
B3: rabbit anti-KDR antibody clone 23 (antibody, V domains shown)
VH: B1 VH
VL: B1 VL
notes: as for B1
B4: APX004 (humanized clone 36 anti-KDR antibody) (antibody, human IgG1, kappa, V domains shown)
VH: EVQLVESGGGLVQPGGSLRLSCAASGFDLSSYAMSWVRQAPGKGLEWVGIIGSGGSTYYASWAKGRFTISKDSSKNTVYLQMNSLRAEDTAVYFCARVLWAGSVAYAYHNIWGPGTLVTVSS
VL: DIQMTQSPSSLSASVGDRVTINCQASEELGSNLAWYQQKPGKPPKLLIYSASTLASGVPSRFSGSGSGTDYTLTISSLQPEDFATYYCQYTYFGSSYLGAFGGGTKVEIKR
notes: also called humanized 36

What was measured:
[1] = molecular target: T1, recombinant human KDR (human, UniProt P35968 20-764, limits assumed); test: blocking ELISA of KDR binding to VEGF (screen, OD450 (Blocking) against antibody in nM); blocked ligand VEGF
T1 construct: also called VEGFR2

[2] = molecular target: Human OX40L (human) (UniProt P23510); test: direct ELISA: 1 µg/ml protein coated, 1 µg/ml APX004, goat anti-human HRP-conjugated IgG

Binder	binding [1]	binding [2]
B1	binds	–
B2	binds	–
B3	binds	–
B4	–	no binding (tested: 1 µg/ml)
